Test results reported in PMC10312976.
No constants are given. Whether binding was seen depends on the method and setting. Binding seen in cells or lysates may run through a third protein. Some results given as binding are weak or reduced against the parent protein; the word gives no strength.

T1: Dbr1 (reciprocal co-IP in 293T cells) (human), Q9UK59
T1 chain: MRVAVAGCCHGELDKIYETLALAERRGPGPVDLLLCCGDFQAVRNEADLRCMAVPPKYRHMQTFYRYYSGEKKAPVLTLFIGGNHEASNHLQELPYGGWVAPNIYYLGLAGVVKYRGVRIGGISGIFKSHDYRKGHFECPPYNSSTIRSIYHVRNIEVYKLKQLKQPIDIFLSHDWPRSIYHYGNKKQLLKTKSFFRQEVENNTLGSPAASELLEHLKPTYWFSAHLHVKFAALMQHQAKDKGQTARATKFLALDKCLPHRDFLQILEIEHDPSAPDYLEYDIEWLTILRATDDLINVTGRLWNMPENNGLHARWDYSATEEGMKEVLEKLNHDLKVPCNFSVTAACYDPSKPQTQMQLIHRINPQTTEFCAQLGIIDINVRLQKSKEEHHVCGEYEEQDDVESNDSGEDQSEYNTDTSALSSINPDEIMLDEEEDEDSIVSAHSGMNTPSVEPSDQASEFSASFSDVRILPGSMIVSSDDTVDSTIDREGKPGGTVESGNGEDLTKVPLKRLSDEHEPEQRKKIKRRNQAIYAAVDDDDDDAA

T2: AQR (human (endogenous in HEK293T)), O60306
T2 chain: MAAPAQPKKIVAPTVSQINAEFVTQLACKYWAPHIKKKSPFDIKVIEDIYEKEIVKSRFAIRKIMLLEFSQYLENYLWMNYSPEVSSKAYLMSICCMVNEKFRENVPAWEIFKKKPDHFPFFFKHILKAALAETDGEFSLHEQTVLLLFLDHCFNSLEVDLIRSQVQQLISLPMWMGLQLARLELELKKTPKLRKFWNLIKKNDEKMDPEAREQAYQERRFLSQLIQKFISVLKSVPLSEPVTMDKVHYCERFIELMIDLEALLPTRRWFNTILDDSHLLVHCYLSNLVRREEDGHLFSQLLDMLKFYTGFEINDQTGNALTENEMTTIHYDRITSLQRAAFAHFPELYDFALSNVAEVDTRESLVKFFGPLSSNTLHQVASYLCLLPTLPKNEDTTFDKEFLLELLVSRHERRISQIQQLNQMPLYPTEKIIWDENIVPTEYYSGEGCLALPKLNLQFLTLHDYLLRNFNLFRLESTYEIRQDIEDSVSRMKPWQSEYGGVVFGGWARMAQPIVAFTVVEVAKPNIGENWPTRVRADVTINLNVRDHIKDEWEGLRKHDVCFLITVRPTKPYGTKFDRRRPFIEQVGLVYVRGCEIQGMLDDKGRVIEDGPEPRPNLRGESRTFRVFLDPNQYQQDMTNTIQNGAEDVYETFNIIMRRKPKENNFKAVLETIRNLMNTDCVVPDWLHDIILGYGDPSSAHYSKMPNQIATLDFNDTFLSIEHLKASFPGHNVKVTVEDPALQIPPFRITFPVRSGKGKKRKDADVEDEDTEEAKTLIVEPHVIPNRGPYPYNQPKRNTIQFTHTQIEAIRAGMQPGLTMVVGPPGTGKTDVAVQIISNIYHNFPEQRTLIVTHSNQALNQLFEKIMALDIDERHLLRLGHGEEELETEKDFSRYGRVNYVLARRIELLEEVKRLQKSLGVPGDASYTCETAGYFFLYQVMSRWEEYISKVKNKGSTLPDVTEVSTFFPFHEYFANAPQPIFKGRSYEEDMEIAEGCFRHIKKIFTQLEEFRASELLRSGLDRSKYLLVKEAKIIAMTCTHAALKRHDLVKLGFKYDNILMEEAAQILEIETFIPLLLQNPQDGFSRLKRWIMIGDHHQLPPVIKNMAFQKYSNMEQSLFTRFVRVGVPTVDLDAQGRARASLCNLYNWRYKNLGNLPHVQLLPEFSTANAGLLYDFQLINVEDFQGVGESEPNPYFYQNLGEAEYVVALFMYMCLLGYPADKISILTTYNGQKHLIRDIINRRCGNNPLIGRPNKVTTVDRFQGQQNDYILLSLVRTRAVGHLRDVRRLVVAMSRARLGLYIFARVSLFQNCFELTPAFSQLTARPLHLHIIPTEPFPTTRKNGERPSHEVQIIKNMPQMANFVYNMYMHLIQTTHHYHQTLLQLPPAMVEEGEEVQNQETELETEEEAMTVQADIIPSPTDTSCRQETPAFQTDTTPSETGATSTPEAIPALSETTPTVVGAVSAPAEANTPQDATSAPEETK

B1: AQR, O60306 1-1485 (protein)
chain: T2 chain
B2: Dbr1 (reciprocal co-IP in 293T cells), Q9UK59 1-544 (enzyme)
chain: T1 chain

Columns and labels:
[1] = biological target: T1, Dbr1 (reciprocal co-IP in 293T cells) …; test: co-IP; reciprocal co-IP of Dbr1 and AQR in 293T cells, western blot of both Dbr1 and AQR immunoprecipitations; settings: remark: other sources report otherwise
[2] = biological target: T2, AQR (human (endogenous in HEK293T)), …; test: as above; settings: remark: other sources report otherwise

Binder	binding [1]	binding [2]
B1	binds	
B2		binds
